# Laboratory results: patent US20260317349A1, “MACROCYCLIC CHELATING AGENT CAPABLE OF SITE-SPECIFIC MODIFICATION, RADIONUCLIDE PROBE, AND USE THEREOF” (SHANGHAI INSTITUTE OF MATERIA MEDICA, CHINESE ACADEMY OF …, priority 2023, published 2026)
# Test: Radiolabeling of compound with 68Ga, labeling rate by thin-layer chromatography (0.1-20 μg, 25° C. and 37° C., 10 min)
# Method: Experimental Example 1: Labeling Rates of Compound I-5 with Different Masses Labeled with ^68Ga at 25° C. And 37° C.
# Compound I-5 was dissolved in water at a concentration of 10 μg/μL. Two groups were set, and for each group, seven samples in total with the masses of 0.1 μg, 0.5 μg, 1 μg, 2 μg, 5 μg, 10 μg, and 20 μg were added in centrifuge tubes, respectively. Then 45 μL of a 1.5M sodium acetate solution and 430 μL of a gallium chloride eluent (1 mCi) were added, mixed thoroughly, and placed at 25° C. and 37° C. for 10 min. After labeling, samples were subjected to thin-layer chromatography, and the labeling rate was calculated after instrument analysis.
structure (smiles),measurement,setting,value
C#CCN1Cc2cccc(n2)CN(CC(=O)O)Cc2cc(C)cc(c2O)CN(CC(=O)O)Cc2cccc(n2)CN(CC(=O)O)Cc2cc(C)cc(c2O)C1 [Compound I-5],"labeling efficiency, 37° C. versus 25° C.",0.5 μg or more,higher at 37 °C than those at 25 °C
same,labeling rate,"25° C., 0.1-20 μg compound, 1 mCi gallium chloride eluent, sodium acetate",over 90%
same,labeling rate,"37° C., 20 μg",~100%
same,labeling rate,"37° C., 0.1-20 μg compound, 1 mCi gallium chloride eluent, sodium acetate",over 90%
